Assay [1] addresses programmed death-1 (PD-1) ligand 1 (PD-L1), endogenous (human (endogenous in RKO and LoVo)) (UniProt Q9NZQ7). Briefly: co-IP; co-immunoprecipitation of PD-L1 with TRAPP subunits (Supplementary Fig. 1b); cells and antibodies not shown.
In assay [2] the target is FLAG-PD-L1 (UniProt Q9NZQ7). Nature of the assay: co-IP; RKO and LoVo cells co-transfected with FLAG-PD-L1 and MYC-TRAPPC4, IP for FLAG and for MYC.
In assay [3] the target is programmed death-1 (PD-1) ligand 1 (PD-L1), endogenous (human (endogenous in RKO and LoVo)) (UniProt Q9NZQ7). Briefly: co-IP; endogenous proteins, RKO and LoVo lysates, IP lysis buffer, Protein G agarose, IgG as control.
Assay [4] deals with RAB11a (UniProt P62491). Nature of the assay: co-IP; co-immunoprecipitation of RAB11 with TRAPPC4 and PD-L1, IgG as control; cells not named; also after silencing of TRAPPC4 by siRNA (PD-L1 with RAB11a reduced).

Amino acid sequences for entries named in this document (tags omitted). Residues count along the entry.
UniProt Q9NZQ7, residues 19-290: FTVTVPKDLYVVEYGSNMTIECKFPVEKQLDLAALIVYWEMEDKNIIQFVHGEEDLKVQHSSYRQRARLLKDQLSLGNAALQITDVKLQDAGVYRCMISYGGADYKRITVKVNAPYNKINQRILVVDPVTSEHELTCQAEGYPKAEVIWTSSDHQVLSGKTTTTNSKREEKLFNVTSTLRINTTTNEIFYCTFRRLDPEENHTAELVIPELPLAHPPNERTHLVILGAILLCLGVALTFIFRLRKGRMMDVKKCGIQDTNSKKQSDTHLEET
UniProt P62491: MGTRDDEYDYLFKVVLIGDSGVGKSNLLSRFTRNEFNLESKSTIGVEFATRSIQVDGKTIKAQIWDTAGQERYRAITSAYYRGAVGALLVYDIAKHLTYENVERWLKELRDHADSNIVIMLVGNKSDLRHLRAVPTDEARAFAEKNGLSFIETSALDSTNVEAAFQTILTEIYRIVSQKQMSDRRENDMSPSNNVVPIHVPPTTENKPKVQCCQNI
UniProt Q8WVT3: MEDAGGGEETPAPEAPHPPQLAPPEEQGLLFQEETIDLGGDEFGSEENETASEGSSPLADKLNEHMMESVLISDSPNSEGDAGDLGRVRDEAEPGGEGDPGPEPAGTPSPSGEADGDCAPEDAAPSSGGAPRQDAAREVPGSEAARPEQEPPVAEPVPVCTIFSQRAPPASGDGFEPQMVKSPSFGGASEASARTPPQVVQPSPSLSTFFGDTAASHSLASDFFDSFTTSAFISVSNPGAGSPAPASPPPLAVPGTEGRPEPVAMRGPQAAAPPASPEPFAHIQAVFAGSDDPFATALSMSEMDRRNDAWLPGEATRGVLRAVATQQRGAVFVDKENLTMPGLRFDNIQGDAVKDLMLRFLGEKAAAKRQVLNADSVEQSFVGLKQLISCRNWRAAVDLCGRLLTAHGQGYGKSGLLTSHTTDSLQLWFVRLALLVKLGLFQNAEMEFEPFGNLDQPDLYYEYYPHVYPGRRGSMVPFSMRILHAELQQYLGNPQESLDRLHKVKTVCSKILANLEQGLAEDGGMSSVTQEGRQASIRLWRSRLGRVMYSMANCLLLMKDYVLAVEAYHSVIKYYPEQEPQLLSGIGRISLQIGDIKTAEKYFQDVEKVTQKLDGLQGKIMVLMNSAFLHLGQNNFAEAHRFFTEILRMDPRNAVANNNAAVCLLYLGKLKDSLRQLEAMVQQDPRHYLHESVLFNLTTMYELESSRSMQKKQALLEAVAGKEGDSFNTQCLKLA
UniProt Q9Y296: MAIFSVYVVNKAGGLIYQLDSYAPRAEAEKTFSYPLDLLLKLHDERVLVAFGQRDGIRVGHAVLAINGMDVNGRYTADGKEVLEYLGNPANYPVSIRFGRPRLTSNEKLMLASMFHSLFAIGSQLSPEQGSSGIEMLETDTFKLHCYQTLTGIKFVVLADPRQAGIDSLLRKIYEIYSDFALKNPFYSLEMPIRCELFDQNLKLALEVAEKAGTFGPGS
UniProt O43617: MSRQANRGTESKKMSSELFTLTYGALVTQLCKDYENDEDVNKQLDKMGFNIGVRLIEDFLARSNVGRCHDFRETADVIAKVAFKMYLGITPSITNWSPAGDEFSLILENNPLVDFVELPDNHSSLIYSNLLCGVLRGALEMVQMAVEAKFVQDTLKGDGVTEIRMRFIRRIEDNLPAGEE
UniProt Q9Y2L5: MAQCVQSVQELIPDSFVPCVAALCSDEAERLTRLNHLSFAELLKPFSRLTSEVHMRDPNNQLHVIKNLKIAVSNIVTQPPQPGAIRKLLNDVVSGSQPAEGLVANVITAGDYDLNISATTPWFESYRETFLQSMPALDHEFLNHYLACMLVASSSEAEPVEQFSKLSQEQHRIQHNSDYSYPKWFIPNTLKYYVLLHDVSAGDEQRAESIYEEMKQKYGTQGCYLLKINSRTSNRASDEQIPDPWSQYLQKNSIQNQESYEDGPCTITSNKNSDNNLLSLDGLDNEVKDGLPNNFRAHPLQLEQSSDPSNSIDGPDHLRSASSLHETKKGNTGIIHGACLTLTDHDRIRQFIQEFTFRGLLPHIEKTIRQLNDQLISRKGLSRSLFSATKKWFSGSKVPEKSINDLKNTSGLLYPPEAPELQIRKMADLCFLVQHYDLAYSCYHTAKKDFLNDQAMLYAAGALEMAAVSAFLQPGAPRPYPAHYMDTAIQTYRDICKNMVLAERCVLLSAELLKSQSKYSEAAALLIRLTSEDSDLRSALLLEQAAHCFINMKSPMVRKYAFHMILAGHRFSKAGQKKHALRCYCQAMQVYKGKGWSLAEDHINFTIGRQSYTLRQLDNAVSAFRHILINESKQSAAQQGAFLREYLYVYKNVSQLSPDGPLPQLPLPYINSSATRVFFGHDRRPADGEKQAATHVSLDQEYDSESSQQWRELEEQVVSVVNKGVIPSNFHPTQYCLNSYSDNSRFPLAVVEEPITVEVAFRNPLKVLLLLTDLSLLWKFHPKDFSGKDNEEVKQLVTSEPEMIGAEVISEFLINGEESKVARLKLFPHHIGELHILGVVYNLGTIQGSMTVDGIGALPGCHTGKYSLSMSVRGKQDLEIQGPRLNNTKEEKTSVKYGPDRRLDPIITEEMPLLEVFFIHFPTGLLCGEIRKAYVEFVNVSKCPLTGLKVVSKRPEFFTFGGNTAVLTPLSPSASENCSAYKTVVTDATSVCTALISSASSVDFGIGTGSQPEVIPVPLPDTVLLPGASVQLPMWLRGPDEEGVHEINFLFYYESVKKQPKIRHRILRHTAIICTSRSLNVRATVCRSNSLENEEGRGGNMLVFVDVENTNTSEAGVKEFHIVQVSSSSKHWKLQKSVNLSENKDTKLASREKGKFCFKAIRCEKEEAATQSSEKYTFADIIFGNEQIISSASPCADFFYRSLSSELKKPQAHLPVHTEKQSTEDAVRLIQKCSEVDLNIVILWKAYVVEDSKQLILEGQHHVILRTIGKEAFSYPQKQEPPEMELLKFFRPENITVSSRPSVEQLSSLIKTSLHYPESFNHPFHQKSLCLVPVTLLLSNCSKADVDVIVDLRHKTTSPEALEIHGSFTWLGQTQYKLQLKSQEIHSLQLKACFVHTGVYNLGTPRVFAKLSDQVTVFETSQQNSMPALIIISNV

No constants are given. Whether binding was seen depends on the method and setting. In cells and extracts the contact can be indirect. Some results given as binding are weak or reduced against the parent protein; the word gives no strength.

Regarding TRAPPC12 (from UniProt Q8WVT3 1-735), the binding entry in assay [1] is “binds”.

Take MYC-TRAPPC4 (from UniProt Q9Y296 1-219): in assay [2], the binding entry is “binds”.

Consider “trafficking protein particle complex subunit 4 (TRAPPC4), endogenous (from UniProt Q9Y296 1-219)”, for which the binding entry in assay [3], in assay [1] and in assay [4] was “binds” each time.

Turning to “programmed death-1 (PD-1) ligand 1 (PD-L1), endogenous (from UniProt Q9NZQ7 19-290)”, the binding entry in assay [4] was “binds”.

As for TRAPPC3 (from UniProt O43617 1-180), the binding entry in assay [1] was “binds”.

Consider TRAPPC8 (from UniProt Q9Y2L5 1-1435), for which, in assay [1], the binding result was “binds”.
